# Results: PMC12431657, “Discovery and mechanistic insights of dibenzoylmethane as a broad spectrum inhibitor of coronavirus” (PLOS Pathogens, 2025)
# Structures can show the parent of a compound that is named as a salt. Where two headings read alike, the source gives them in different places. About 60 (2%) of roughly 3,300 compounds showed an effect of 50% or more. The list shows a part of the results. Square brackets hold non-standard residues; d marks the D form. Peptide text beside a SMILES is read from it. * marks the point of attachment. Sta = CC(C)C[C@H](N)[C@@H](O)CC(=O)O; Isovaleryl = CC(C)CC(=O)*
# Tested on: HCoV-OC43
# Design: species or system RD; HTS, protection from HCoV-OC43 induced cell death, luminescent cell viability (CellCounting-Lite 2.0), inhibition rate
# Conditions: 24 h post infection, 1 h compound pre-incubation, 10 µM, inhibitor
SMILES,OC43 Inhibition rate [%],"OC43 Inhibition rate (OC43 Inhibition rate, 24 h) [%]"
CC1=CC(=O)c2ccccc2C1=O [Menadione],-0.4,–
CCC(C)C(=O)C(=O)O (stereo not shown) [3-Methyl-2-oxovaleric acid],-0.2,–
C[C@@H]1O[C@@H](O[C@H]2[C@H](O[C@H]3CC[C@@]4(C)[C@@H](CC[C@]5(C)[C@@H]4CC=C4[C@@H]6CC(C)(C)CC[C@]6(C(=O)O)CC[C@]45C)[C@]3(C)CO)OC[C@H](O[C@@H]3O[C@H](CO)[C@@H](O)[C@H](O)[C@H]3O)[C@@H]2O)[C@H](O)[C@H](O)[C@H]1O [Pulsatilla saponin D],13.9,–
"O=C(O)Cc1ccc(O)c(O)c1 [3,4-Dihydroxybenzeneacetic acid]",-1.1,–
CC(=O)N[C@H](C(=O)O)C(C)C [Acetylvaline],-0.2,–
CC(C)=CCC[C@@](C)(O)[C@H]1CC[C@]2(C)[C@@H]1[C@H](O)C[C@@H]1[C@@]3(C)CC[C@H](O[C@@H]4O[C@H](CO)[C@@H](O)[C@H](O)[C@H]4O[C@@H]4O[C@H](CO)[C@@H](O)[C@H](O)[C@H]4O)C(C)(C)[C@@H]3CC[C@]12C [(20R)-Ginsenoside Rg3],2.9,–
O[C@]12CO[C@H](c3ccc4c(c3)OCO4)[C@H]1CO[C@@H]2c1ccc2c(c1)OCO2 [Paulownin],-0.3,–
O=c1c(O[C@@H]2O[C@@H](CO)[C@H](O)[C@H]2O)c(-c2ccc(O)c(O)c2)oc2cc(O)cc(O)c12 [Avicularin],9.4,–
C=C1CCC[C@]2(C)C[C@]3(O)OC(=O)C(C)=C3C[C@@H]12 [Atractylenolide III],0,–
C=C1[C@H]2C[C@H]2[C@]2(C)Cc3occ(C)c3[C@H](O)[C@@H]12 [Lindenenol],1.4,–
O=C(O)/C=C/C=C/c1ccccc1 [Cinnamylideneacetic acid],-0.1,–
CO[C@@H]1[C@H](O)CC[C@]2(CO2)[C@H]1[C@@]1(C)O[C@@H]1CC=C(C)C [Fumagillol],6.9,–
"O=C(CO)[C@@H](O)[C@H](O)[C@@H](O)CO [(3S,4R,5S)-1,3,4,5,6-Pentahydroxyhexan-2-one]",7.4,–
O=C(/C=C/c1ccc(O)c(O)c1)O[C@H]1[C@H](O)C[C@](O)(C(=O)O)C[C@H]1O [Cryptochlorogenic acid],-0.8,–
N[C@@H](CCC(=O)NCC(=O)O)C(=O)O [γ-Glu-Gly],-0.3,–
"CCCCCCCCCCCCCCCC(=O)OC[C@H](CO)OC(=O)CCCCCCCCCCCCCCC [1,2-Dipalmitoyl-sn-glycerol]",-0.2,–
CC(C)CC(=O)N[C@H](C(=O)N[C@H](C(=O)N[C@@H](CC(C)C)[C@@H](O)CC(=O)N[C@@H](C)C(=O)N[C@@H](CC(C)C)[C@@H](O)CC(=O)O)C(C)C)C(C)C [Pepstatin] (Isovaleryl-VV[Sta]A[Sta]-OH),–,1.2
CC[C@H](C)[C@@H]1NC(=O)[C@@H]2CCCN2C(=O)[C@@H]2CCCN2C(=O)[C@@H]2CCCN2C(=O)[C@H](CC(C)C)NC(=O)CNC(=O)CNC(=O)[C@H](Cc2ccccc2)NC1=O [Heterophyllin B] (cyclo(FGGLPPPI)),1.8,–
Nc1ncnc2c1ncn2[C@@H]1O[C@H](CO)C[C@H]1O [Cordycepin],-0.3,–
CC(=O)N[C@H]1[C@H]([C@H](O)[C@H](O)CO)OC(O)(C(=O)O)C[C@@H]1O (stereo partly shown) [N-Acetylneuraminic acid],2.9,–
OCc1cccc(O)c1 [KSD 2405],0.1,–
CC(C)[C@H](NC(=O)[C@H](CC(=O)O)NC(=O)[C@H](CCCCN)NC(=O)[C@@H](N)CCCN=C(N)N)C(=O)N[C@@H](Cc1ccc(O)cc1)C(=O)O [Thymopentin (acetate)] (H-RKDVY-OH),–,0

SMILES,OC43 Inhibition rate [%],"OC43 Inhibition rate (OC43 Inhibition rate, 24 h) [%]"
COc1cc2c(c(OC)c1OC)-c1c(cc3c(c1O)OCO3)C[C@H](C)[C@@H](C)C2 [Gomisin M2],3.4,–
OCc1ccc(O)cc1 [4-Hydroxybenzyl alcohol],-0.1,–
COc1c2ccoc2c(O)c2oc(=O)ccc12 [8-Hydroxybergapten],5.8,–
CNc1ccccc1C(=O)OC [Methyl N-methylanthranilate],-0.6,–
CC[C@H](C)C(=O)O[C@H]1C[C@H](O)C=C2C=C[C@H](C)[C@H](CC[C@@H](O)C[C@@H](O)CC(=O)O)[C@H]21 [Pravastatin (sodium)],3.1,–
COc1ccc2ccc(=O)oc2c1C[C@@H]1OC1(C)C [Meranzin],-0.8,–
Cc1c(C)c2c(c(C)c1O)CC[C@@](C)(CCC[C@H](C)CCC[C@H](C)CCCC(C)C)O2 (racemic) [DL-alpha-Tocopherol],1.2,–
CC(C)[C@H](N)C(=O)NCCC(=O)O [H-Val-Ala-OH],0.2,–
CCCCCCCC(=O)OC [Methyl octanoate],0.1,–
CCCCC/C=C\C/C=C\CCCCCCCC(=O)OCC(O)CO (stereo not shown) [1-Linoleoyl Glycerol],-0.1,–
CCC(O)C(=O)O (stereo not shown) [Sodium 2-hydroxybutanoate],-6,–
C[C@H]1O[C@H](O[C@@H]2[C@@H](O)[C@H](OCCc3ccc(O)c(O)c3)O[C@H](CO[C@H]3OCC(O)(CO)[C@@H]3O)[C@H]2OC(=O)/C=C/c2ccc(O)c(O)c2)[C@@H](O)[C@@H](O)[C@@H]1O (stereo partly shown) [Forsythoside B],-0.3,–
Cc1cc(=O)c2c(O)cc(O)cc2o1 [Noreugenin],0.1,–
CC(C)=CC/C=C(\C)[C@H]1CC[C@]2(C)[C@@H]1[C@H](O)C[C@@H]1[C@@]3(C)C[C@@H](O)[C@H](O[C@@H]4O[C@H](CO)[C@@H](O)[C@H](O)[C@H]4O[C@@H]4O[C@H](CO)[C@@H](O)[C@H](O)[C@H]4O)C(C)(C)[C@@H]3CC[C@]12C [Damulin A],-0.5,–
CC(=O)NCC(=O)O [N-Acetylglycine],-2,–
C=C(CCC=C(C)C)[C@H]1CC[C@]2(C)[C@@H]1[C@H](O)C[C@@H]1[C@@]3(C)CC[C@H](O[C@@H]4O[C@H](CO)[C@@H](O)[C@H](O)[C@H]4O[C@@H]4O[C@H](CO)[C@@H](O)[C@H](O)[C@H]4O)C(C)(C)[C@@H]3CC[C@]12C [Ginsenoside Rk1],16.3,–
CCC(O)CC(=O)O (stereo not shown) [3-Hydroxyvaleric acid],-1.3,–
Cc1cc(O)cc(O)c1C(=O)O [Orsellinic acid],0.5,–
COc1cc(-c2coc3c([C@@H]4O[C@H](CO)[C@@H](O)[C@H](O)[C@H]4O)c(O)ccc3c2=O)ccc1O [3'-Methoxypuerarin],0,–
C=C[C@]1(C)C[C@@H](OC(=O)CO)[C@]2(C)[C@H](C)CC[C@]3(CCC(=O)[C@H]32)[C@@H](C)[C@@H]1O [Pleuromutilin],40.2,–
O=C(/C=C/c1ccc(O)cc1)c1c(O)cc(O)cc1O [Naringenin chalcone],0.1,–
"CC(=O)c1ccc(C)cc1C [2',4'-Dimethylacetophenone]",-0.9,–

SMILES,OC43 Inhibition rate [%],"OC43 Inhibition rate (OC43 Inhibition rate, 24 h) [%]"
C=CCc1ccc(OC)cc1 [Estragole],-2.2,–
Nc1[nH]c(=O)nc2c1ncn2[C@@H]1O[C@H](CO)[C@@H](O)[C@H]1O [Crotonoside],-0.2,–
O=c1oc2ccccc2cc1O [3-Hydroxycoumarin],0.2,–
COc1ccc2c(c1OC)CN1CCc3cc4c(cc3C1=C2)OCO4 [Dihydroberberine],0.6,–
C/C=C/SC[C@H](N)C(=O)O [S-1-Propenyl-L-cysteine],2.1,–
O=c1cccc2n1C[C@@H]1CNC[C@H]2C1 [Cytisinicline],-0.4,–
CC/C=C\C/C=C\C/C=C\CCCCCCCC(=O)O [α-Linolenic acid],1.6,–
C[C@@H]1O[C@@H](O[C@H]2C(=O)c3c(O)cc(O)cc3O[C@@H]2c2ccc(O)c(O)c2)[C@H](O)[C@H](O)[C@H]1O [Astilbin],-0.7,–
Cc1ccc(C(C)C)c(O)c1 [Thymol],2.3,–
NC[C@H]1O[C@H](O[C@H]2[C@H](O)[C@@H](O[C@H]3O[C@H](CO)[C@@H](O)[C@H](N)[C@H]3O)[C@H](N)C[C@@H]2N)[C@H](N)[C@@H](O)[C@@H]1O [Bekanamycin],6.3,–
COc1cc2c(cc1OC)-c1cc3ccc(OC)c(OC)c3c[n+]1CC2 [Palmatine (chloride)],–,-0.5
C=CC(C)(O)CCC=C(C)C (stereo not shown) [Linalool],0.3,–
COc1cc(/C=C/CO)ccc1O[C@@H]1O[C@H](CO)[C@@H](O)[C@H](O)[C@H]1O [Coniferin],-1.6,–
O=C(O)/C=C(\CC(=O)O)C(=O)O [trans-Aconitic acid],-0.3,–
Oc1cc(O)cc(/C=C/c2ccc(O)c(O)c2)c1 [Piceatannol],-0.2,–
CC[C@@]1(O)C(=O)OCc2c1cc1n(c2=O)Cc2cc3c(CN(C)C)c(O)ccc3nc2-1 [Topotecan (Hydrochloride)],-8.4,–
CCCCCCCC/C=C\CCCCCCCC(=O)O [Sodium oleate],–,-1.8
O=C(O)c1ccccc1O [Salicylic acid],–,-0.7
O=Cc1c[nH]c2cccc(O)c12 [4-Hydroxy-1H-indole-3-carbaldehyde],-0.2,–
C=CCSC[C@H](NC(=O)CC[C@H](N)C(=O)O)C(=O)O [γ-Glutamyl-S-allylcysteine],4.3,–
